Source: PMC5683061
Results are given in words; binding and its absence hold for the method and conditions named. Binding can be weak; no strength is given.

Molecular target: T1, Ferredoxin:NADP+ oxidoreductase (FNR), C. reinhardtii, recombinant soluble (C. reinhardtii) (UniProt P53991)
T1 sequence: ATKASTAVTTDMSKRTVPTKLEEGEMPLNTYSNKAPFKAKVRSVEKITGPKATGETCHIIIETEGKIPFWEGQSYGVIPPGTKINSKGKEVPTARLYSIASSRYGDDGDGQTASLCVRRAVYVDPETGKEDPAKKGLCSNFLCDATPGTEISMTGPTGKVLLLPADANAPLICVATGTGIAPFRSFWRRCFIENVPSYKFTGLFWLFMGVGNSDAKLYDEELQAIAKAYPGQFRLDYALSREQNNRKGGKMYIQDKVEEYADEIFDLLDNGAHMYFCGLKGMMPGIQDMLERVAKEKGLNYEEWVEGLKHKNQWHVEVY
Experiment: NMR titration; 2D 1H-15N HSQC chemical shift perturbation of [15N]-FDX (50 µM) mixed with FNR (150 µM), molar ratio 1:3, without or with 150 µM of the other, non-labelled FDX; 25 mM MES-NaOH pH 6.5, 50 mM NaCl, 0.04% β-DDM, 10% D2O, 298 K; both purified

Row | binding | Substance
1 | binds | Ferredoxin 1 (FDX1), C. reinhardtii
2 | binds | Ferredoxin 2 (FDX2), C. reinhardtii
